Reference: PubChem BioAssay AID504764 (Drosophila RNAi Screening Center, 2011)

Screen: 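Genome-wide screen for regulators of Notch-driven gene expression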 (primary screen)
Cell system: Drosophila Kc167 cells
Reagent: long dsRNA against Drosophila genes
Time to read-out: about 5 days (4 days dsRNA, then 24 h after transfection)
Challenge: transfection of constitutively active membrane-tethered Notch lacking the extracellular domain, read 24 h later
Measured: 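Light from a Notch-responsive E(spl)m3 luciferase reporter under active Notch, with control-promoter and no-Notch reporter wells to normalise; raw counts from paired wells a and b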
Reading the numbers: induced reporter light, run 1, well a and induced reporter light, run 1, well b: higher = more light from the Notch target reporter with active Notch; control promoter light, run 1, well a and control promoter light, run 1, well b: higher = more light from the viral control promoter (cell number, transfection, viability); uninduced reporter light, run 1, well a: higher = more light from the Notch target reporter without active Notch
Active means: 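Wells with low control signal or poorly matching duplicates excluded; duplicates averaged; per source plate, z beyond ±2 for induced/control log2 ratio or beyond ±1.8 for induced/uninduced marks a hit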
Meaning of the calls: active = modifier hit (raised or lowered Notch signal); inactive = not a hit
The screen tested about 22,000 reagents; this is a random part of those with a known target gene and a result. In the full data, 403 (1.9%) got an active call. 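Unnormalised raw counts per well; ratio z-scores behind the hit calls and whether each hit raises or lowers signal are not deposited.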 A plus sign joins genes that one reagent is predicted to hit. Reagent sequences are not shown. The record does not give: the amount of reagent.

gene,dsRNA,"induced reporter light, run 1, well a","induced reporter light, run 1, well b","control promoter light, run 1, well a","control promoter light, run 1, well b","uninduced reporter light, run 1, well a",outcome
CG42580,DRSC20397,88760,83475,92270,90760,7960,inactive
CG11241,DRSC11641,1.38e5,1.38e5,86565,95635,8245,inactive
CG17190,DRSC15184,1.84e5,1.79e5,2.18e5,2.17e5,11400,inactive
CG12402,DRSC14508,1.70e5,1.91e5,2.11e5,1.84e5,16490,inactive
daed (daedalus),DRSC00299,1.32e5,1.50e5,1.57e5,1.82e5,18020,active
Dph1 (Diphthamide biosynthesis 1),DRSC09851,98085,1.10e5,75440,26870,8720,inactive
toc (toucan),DRSC00169,78740,80880,99065,1.17e5,6355,inactive
toc (toucan),DRSC00171,1.03e5,97365,1.27e5,1.40e5,8575,inactive
toc (toucan),DRSC00842,1.87e5,2.10e5,2.17e5,2.06e5,15200,inactive
Lpin (Lipin),DRSC07241,1.58e5,1.45e5,1.65e5,1.65e5,14590,inactive
"DCTN6-p27 (Dynactin 6, p27 subunit)",DRSC02609,43915,36205,47370,38150,2245,inactive
kon (kon-tiki),DRSC02033,2.42e5,2.33e5,1.98e5,2.28e5,19430,inactive
CG14743,DRSC06479,2.01e5,1.93e5,1.90e5,1.96e5,17920,inactive
Bub3,DRSC14168,79910,1.04e5,1.11e5,1.08e5,8810,inactive
Ptpmeg2 (Protein tyrosine phosphatase Meg2),DRSC18277,1.08e5,1.17e5,2.10e5,1.45e5,9280,inactive
Ptpmeg2 (Protein tyrosine phosphatase Meg2),DRSC18278,1.10e5,1.23e5,2.42e5,2.51e5,9500,inactive

An excerpt from above, reduced to “control promoter light, run 1, well a”:
CG17190 [DRSC15184]: 2.18e5
CG12402 [DRSC14508]: 2.11e5
daed (daedalus) [DRSC00299]: 1.57e5
Dph1 (Diphthamide biosynthesis 1) [DRSC09851]: 75440

Additional records follow:
gene,dsRNA,"induced reporter light, run 1, well a","induced reporter light, run 1, well b","control promoter light, run 1, well a","control promoter light, run 1, well b","uninduced reporter light, run 1, well a",outcome
Mal-A5 (Maltase A5),DRSC07232,1.77e5,1.52e5,1.54e5,1.67e5,18250,inactive
CR31958 (pseudo),DRSC00282,2.20e5,1.70e5,1.85e5,1.84e5,12800,inactive
Cpr47Eg (Cuticular protein 47Eg),DRSC07330,88800,99945,1.33e5,1.24e5,9955,inactive
CG15536,DRSC15072,1.18e5,1.04e5,1.62e5,1.77e5,12688,inactive
CG4707,DRSC04483,1.01e5,99150,63460,70715,6805,inactive
CG33144,DRSC06132,52260,44510,22550,24230,5750,inactive
CG33144,DRSC07024,1.87e5,2.14e5,2.06e5,2.40e5,14915,inactive
CR32011 + CR32010 + PlexB + 1 more,DRSC21664,,,,,,inactive
CG8321,DRSC07148,1.84e5,1.44e5,1.57e5,1.31e5,11590,inactive
kra (krasavietz),DRSC12320,41610,38700,31735,29325,3695,inactive
CG14965,DRSC08424,1.24e5,1.02e5,1.08e5,27320,10928,inactive
Est-P (Esterase P),DRSC11163,1.49e5,1.42e5,1.66e5,1.21e5,7525,inactive
OdsH (Ods-site homeobox),DRSC20263,1.45e5,1.39e5,1.67e5,1.32e5,18955,inactive
wcd (wicked),DRSC07051,64055,61250,89650,92310,4560,inactive
CG14631,DRSC17792,74170,80375,1.13e5,1.24e5,6360,inactive
CG14631,DRSC17941,76250,75495,86625,94350,5440,inactive
Josd (Josephin domain containing),DRSC18323,1.28e5,1.44e5,2.18e5,2.22e5,10338,inactive
Srx (Sulfiredoxin),DRSC20005,59920,71105,73840,61890,9740,inactive
Dic3,DRSC06058,1.73e5,1.40e5,2.12e5,1.62e5,13165,inactive
Taf8 (TBP-associated factor 8),DRSC20363,69305,60260,61670,52405,7920,inactive
RpL35 (Ribosomal protein L35),DRSC18347,31150,28560,34540,39965,1465,inactive
CG6696,DRSC20004,1.07e5,1.15e5,1.13e5,1.55e5,11955,inactive
lectin-46Ca,DRSC06612,2.20e5,1.92e5,2.28e5,2.17e5,17692,inactive
PIG-S (Phosphatidylinositol glycan anchor biosynthesis class S),DRSC14643,1.77e5,2.03e5,2.72e5,2.35e5,14530,inactive
PIG-S (Phosphatidylinositol glycan anchor biosynthesis class S),DRSC15388,1.70e5,2.00e5,1.98e5,1.93e5,13815,inactive
PIG-S (Phosphatidylinositol glycan anchor biosynthesis class S),DRSC15952,1.85e5,1.99e5,2.00e5,2.19e5,13170,inactive
CG4896,DRSC00671,1.72e5,2.02e5,1.93e5,2.20e5,18878,inactive
mei-38 (meiotic 38),DRSC18564,1.07e5,1.09e5,1.68e5,2.30e5,7510,inactive
"alpha4GT2 (alpha1,4-galactosyltransferase 2)",DRSC15905,1.18e5,1.55e5,1.63e5,1.52e5,11535,inactive
yin,DRSC18854,53880,49000,61110,59845,4115,inactive
CG8399,DRSC07163,67090,72980,79990,1.04e5,5300,active
CG40485,DRSC20624,88285,78500,1.11e5,1.19e5,10640,inactive
boi,DRSC18425,1.41e5,1.25e5,2.11e5,2.20e5,8540,inactive
boi,DRSC18598,1.12e5,1.18e5,2.35e5,2.43e5,9010,inactive
